For seven compounds, normalised response results are on record in the supplement of paper PMC4862054.

Holding throughout (assay): normalised response (% of control), CellTox Green; higher = less cell death (100 = DMSO, 0 = benzethonium chloride kill control)
Holding throughout (conditions): incubation time: 72 h

The subject of one assay is BT-474. As for the experimental part:
(§1)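 DSRT, 72 h incubation, CellTox Green / CellTiter-Glo readout. Signal is normalised to DMSO and benzethonium chloride controls. Value is the normalised response at the lowest tested concentration.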

The subject of the next assay is BT-549. Here is the method:
as §1

For a further assay, the system named is CAL-120. As for the experimental part: as §1
In another assay the test system is CAL-148. As for the experimental part:
as §1

The next assay relates to CAL-51. Here is the method:
as §1

The test system of a further assay is CAL-85-1. As for the experimental part:
as §1

In a further assay the test system is DU-4475. As for the experimental part: as §1
The subject of the next assay is HCC1143. Here is the method:
as §1

The subject of another assay is HCC1599. As for the experimental part: as §1
Another assay relates to HCC1937. Here is the method: as §1
In the next assay the test system is HDQ-P1. As for the experimental part: as §1
The next assay has as its system Hs578T. Here is the method: as §1
A further assay concerns MCF-10A. As for the experimental part:
as §1

The subject of the next assay is MDA-MB-231. As for the experimental part:
as §1

The test system of another assay is MDA-MB-436. As for the experimental part: as §1
A further assay has as its system MDA-MB-453. As for the experimental part: as §1
The next assay deals with MDA-MB-468. As for the experimental part:
as §1

For another assay, the system named is MFM-223. As for the experimental part:
as §1

Small differences around the control level are noise.

Take `CC(=O)[C@]1(O)Cc2c(O)c3c(c(O)c2[C@@H](O[C@H]2C[C@H](N)[C@H](O)[C@H](C)O2)C1)C(=O)c1ccccc1C3=O` [Idarubicin] (0.1 nM): the normalised response in the assay on BT-474 amounted to 101%; in the assay on BT-549 it was 103%; with CAL-120 it was 96.5%; in the assay on CAL-148 it was 106%; with CAL-51, 106%; in the assay with CAL-85-1 it was 99.4%. Moreover, the normalised response was determined as 101% with DU-4475; 124% in the assay with HCC1143; 100% with HCC1599; 94.5% in the assay on HCC1937; 102% in the assay with HDQ-P1; 106% with Hs578T. For the same compound, the normalised response in the assay with MCF-10A was found to be 91.1%; with MDA-MB-231, 95%; with MDA-MB-436 it was 68%; with MDA-MB-453 it was 104%; with MDA-MB-468, 72.8%; with MFM-223, 97.6%.

As for `C/C(=C\c1csc(C)n1)[C@@H]1C[C@@H]2O[C@]2(C)CCC[C@H](C)[C@H](O)[C@@H](C)C(=O)C(C)(C)[C@@H](O)CC(=O)N1` [Ixabepilone] (0.1 nM), the normalised response is 97.5% in the assay on BT-474; 106% in the assay on BT-549; 104% with CAL-120; 99.3% in the assay on CAL-148; 109% in the assay on CAL-51; 92.6% with CAL-85-1. Further, the normalised response amounted to 106% in the assay on DU-4475; 104% with HCC1143; 100% in the assay on HCC1599; 100% in the assay with HCC1937; 94.2% with HDQ-P1; 84.6% in the assay with Hs578T. Also, the normalised response in the assay with MCF-10A was 99.9%; in the assay on MDA-MB-231, 105%; with MDA-MB-436 it was 93.8%; with MDA-MB-453, 104%; in the assay on MDA-MB-468, 87.6%; with MFM-223, 92.8%.

Regarding `CS(=O)(=O)CCNCc1ccc(-c2ccc3ncnc(Nc4ccc(OCc5cccc(F)c5)c(Cl)c4)c3c2)o1` [Lapatinib] (0.1 nM), the normalised response came to 103% with BT-474; 90% in the assay on BT-549; 98.1% with CAL-120; 105% in the assay on CAL-148; 124% in the assay with CAL-51; 107% in the assay on CAL-85-1. Further, the normalised response in the assay on DU-4475 worked out at 102%; in the assay with HCC1143 it was 113%; in the assay with HCC1599 it was 101%; in the assay with HCC1937, 101%; in the assay with HDQ-P1, 89.9%; in the assay with Hs578T, 54.7%. Also, the normalised response in the assay with MCF-10A was 98.8%; in the assay with MDA-MB-231, 105%; in the assay with MDA-MB-436 it was 100%; with MDA-MB-453, 110%; with MDA-MB-468, 62.4%; with MFM-223 it was 88.3%.

Take `S=c1[nH]cnc2nc[nH]c12` [Mercaptopurine] (1 nM): the normalised response in the assay on BT-474 was found to be 100%; in the assay with BT-549, 91.2%; with CAL-120, 101%; in the assay on CAL-148, 101%; with CAL-51, 104%; with CAL-85-1 it was 104%. Moreover, the normalised response in the assay on DU-4475 turned out to be 99.8%; in the assay on HCC1143, 90.4%; in the assay on HCC1599, 98.7%; with HCC1937, 107%; in the assay with HDQ-P1, 99%; in the assay on Hs578T, 97.7%. Also, the normalised response worked out at 69.9% with MCF-10A; 105% with MDA-MB-231; 58.9% with MDA-MB-436; 96.8% with MDA-MB-453; 129% in the assay with MDA-MB-468; 95.4% in the assay on MFM-223.

As for `Cc1[nH]c2ccccc2c1CCNCc1ccc(/C=C/C(=O)NO)cc1` [Panobinostat] (0.1 nM), the normalised response with BT-474 amounted to 101%; in the assay with BT-549, 96.6%; with CAL-120, 98%; in the assay on CAL-148 it was 102%; in the assay on CAL-51, 98%; in the assay on CAL-85-1 it was 97.6%. Moreover, the normalised response in the assay on DU-4475 came to 95.7%; in the assay with HCC1143 it was 101%; in the assay with HCC1599, 99.4%; in the assay with HCC1937, 83.7%; in the assay with HDQ-P1, 95.9%; with Hs578T, 104%. The normalised response with MCF-10A amounted to 52.5%; with MDA-MB-231, 91.5%; with MDA-MB-436, 81.8%; with MDA-MB-453, 101%; in the assay on MDA-MB-468, 99.8%; in the assay on MFM-223, 95.1%.

On to `Cn1cc(CNCC2CCN(c3ncc(C(=O)NO)cn3)CC2)c2ccccc21` [Quisinostat] (0.1 nM), for which the normalised response in the assay with BT-474 was 54.8%; with BT-549 it was 99.1%; in the assay on CAL-120 it was 103%; in the assay with CAL-148, 106%; with CAL-51, 96.7%; with CAL-85-1 it was 102%. Also, the normalised response was 101% in the assay with DU-4475; 100% in the assay on HCC1143; 93.2% in the assay with HCC1599; 107% in the assay on HCC1937; 105% in the assay on HDQ-P1; 112% in the assay with Hs578T. Besides, the normalised response in the assay on MCF-10A was found to be 90.9%; in the assay on MDA-MB-231, 107%; in the assay on MDA-MB-436, 78.9%; in the assay on MDA-MB-453, 90.8%; in the assay with MDA-MB-468, 76.1%; with MFM-223, 104%.

In the case of `CCCC(CCC)C(=O)O` [Valproic acid] (100 nM), the normalised response with BT-474 was 96.9%; in the assay with BT-549 it was 103%; with CAL-120, 104%; in the assay on CAL-148 it was 89.8%; in the assay with CAL-51, 106%; in the assay with CAL-85-1, 98%. Moreover, the normalised response was 113% in the assay with DU-4475; 94.5% with HCC1143; 121% in the assay on HCC1599; 107% with HCC1937; 102% with HDQ-P1; 108% in the assay on Hs578T. The normalised response in the assay on MCF-10A is 108%; with MDA-MB-231, 116%; with MDA-MB-436, 115%; in the assay on MDA-MB-453 it was 98.2%; in the assay on MDA-MB-468, 114%; with MFM-223, 100%.
